Library screen at single concentrations

Amino acid sequences for entries named in this document (tags omitted).
UniProt P9WNZ1, whole entry: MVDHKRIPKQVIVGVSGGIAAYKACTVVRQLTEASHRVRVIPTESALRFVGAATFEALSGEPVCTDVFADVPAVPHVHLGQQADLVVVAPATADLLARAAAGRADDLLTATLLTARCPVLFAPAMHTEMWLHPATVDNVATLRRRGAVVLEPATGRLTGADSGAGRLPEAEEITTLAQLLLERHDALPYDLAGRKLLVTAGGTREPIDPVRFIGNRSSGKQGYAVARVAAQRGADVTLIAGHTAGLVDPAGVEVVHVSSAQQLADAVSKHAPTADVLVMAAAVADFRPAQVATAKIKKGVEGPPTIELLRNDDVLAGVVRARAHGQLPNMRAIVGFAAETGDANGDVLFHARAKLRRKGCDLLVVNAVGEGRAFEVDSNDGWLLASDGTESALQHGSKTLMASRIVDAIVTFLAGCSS
UniProt P9WFT3, whole entry: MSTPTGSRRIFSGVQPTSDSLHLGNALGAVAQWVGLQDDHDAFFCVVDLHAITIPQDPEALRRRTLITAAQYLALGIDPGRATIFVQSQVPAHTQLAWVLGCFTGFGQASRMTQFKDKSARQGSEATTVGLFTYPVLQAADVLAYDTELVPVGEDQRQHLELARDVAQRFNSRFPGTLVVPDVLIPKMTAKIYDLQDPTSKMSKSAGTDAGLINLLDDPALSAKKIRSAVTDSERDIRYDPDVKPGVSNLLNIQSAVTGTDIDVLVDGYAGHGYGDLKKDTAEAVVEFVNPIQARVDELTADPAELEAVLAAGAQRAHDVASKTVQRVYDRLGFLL

CoaBC: 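Enzyme assay of CoaBC with a phosphate dye (Biomol Green) read at 650 nm. Target: Coenzyme A biosynthesis protein CoaBC, Mycobacterium tuberculosis (UniProt P9WNZ1). Tested at 30 µM. Direction is inferred from only a few compounds that gave an IC50; most scored high, so higher reads as stronger inhibition. Most strong results did not repeat in a second test. About 67,000 compounds were tested under these conditions; 0.06% (about 40) showed 50% or more at least once.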
MtTrpRS: 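Tryptophan-tRNA ligase, Mycobacterium tuberculosis (UniProt P9WFT3). Enzyme assay of tryptophanyl-tRNA synthetase; the read-out is not stated. Tested at 10 µM. Higher most likely means stronger inhibition; the record gives no direction and few retests gave an IC50. About 65,000 compounds were tested under these conditions; 0.098% (about 64) showed 50% or more at least once.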

Results are given as percent effect. The record does not define 0% and 100%; most values in the screen are far below 50% and negative numbers occur (in some assays of this library far below -100). This is an unselected part of the compounds tested. A dash means the value is not listed here; it may have been measured.

structure,CoaBC,MtTrpRS
CC1=Nc2c(c(=O)[nH]n2C(C)C)C(c2cccc(OC(F)F)c2)S1 (stereo not drawn),1.263%,0.2101%
O=C1CCN(C(=O)NCCCc2ccc(Cl)cc2Cl)CCN1,10.1%,2.581%
CC(=O)Nc1ccc(-n2ccc3nc(N4CCCC4)ncc3c2=O)cc1,1.75%,-4.422%
OCCn1ncc2c1CN(CC1CCOc3ccccc3C1)C2 (stereo not drawn),-4.132%,-4.863%
COCC1(C(=O)N[C@H]2CN(c3ccnc(C)c3)C[C@@H]2C2CC2)CCC1,-9.344%,-0.4468%
O=C(NCc1cc(F)ccc1F)Nc1ccn(CC(F)F)n1,-,4.541%
CN(CCO)Cc1nnc(C2CCN(CC(C)(C)C)CC2)n1C,0.7712%,-2.506%
Cc1ccc(S(=O)(=O)CCC(=O)N(C)Cc2cnn(C)c2)cc1,4.225%,-0.1285%
Cc1ccc(NC(=O)Cn2cc(I)cn2)cc1,-7.173%,7.014%
COc1ccc(C(O)C(=O)N2CCC(c3nccn3C(C)C)CC2)cc1 (stereo not drawn),0.7673%,-1.26%
Cc1cc(C(=O)Nc2cccn(Cc3ccc(F)cc3)c2=O)on1,-8.645%,5.716%
CCN(Cc1nnnn1C1CC1)c1cc(C)ccc1C,2.39%,-9.265%
CCOc1ccc(NC(=O)NCc2csc(NC)n2)cc1C,5.396%,-2.235%
Cc1cnn(CC2CN(CCS(=O)(=O)C(F)(F)F)CCO2)c1 (stereo not drawn),-2.17%,11.54%
C=C(C)C(=O)N1CCC(C(=O)c2cc(C)cnc2N)CC1,0%,2.643%
COCCNC(=O)c1ccoc1CN1c2ccccc2CC1C (stereo not drawn),3.515%,-1.347%
O=C(NCc1ccco1)c1cccc(CN2CCCC2CO)c1 (stereo not drawn),2.554%,6.535%
CN1CCOCC2(CCCN(C(=O)c3ccc(-n4cccc4)cc3)C2)C1 (stereo not drawn),-6.694%,-4.354%
O=C(NC1CC1)N1CCc2ccc(=O)n(CCN3CCCC3)c2CC1,-44.19%,-6.836%
Cc1ncc(CN2CCOC(CN(C)c3cccnn3)C2)s1 (stereo not drawn),7.127%,-0.4068%
CCN(C)C(=O)c1ccc2c(c1)C(c1nc[nH]n1)CN2S(C)(=O)=O (stereo not drawn),-0.4831%,-1.091%
CCS(=O)(=O)CCN1CCC(N(C)Cc2ncc(C)o2)C1 (stereo not drawn),14.58%,3.011%
Cc1cccc(NC(=O)N2CC(C(=O)NC(C)C)C3(CCOCC3)C2)c1 (stereo not drawn),9.128%,-3.438%
COc1ccccc1CN1CC(O)CN(S(=O)(=O)C(C)C)CC1=O (stereo not drawn),-0.4843%,-
CN(C)C(=O)N1CCc2c(CNc3ncccn3)cncc2C1,0.6345%,1.154%
COC(=O)C1CCN(C(=O)Nc2cc(-n3cccc3)ccc2F)CC1,4.126%,-1.141%
CCN(c1ccc(C(=O)N2CCC(C(N)=O)CC2)cc1)S(=O)(=O)CC,-0.8424%,-3.668%
CNS(=O)(=O)c1cccc(CNc2ccc(C(F)(F)F)nn2)c1,4.864%,-2.113%
COc1ccc(S(=O)(=O)N2CCn3nc(C)nc3C2)cc1C,1.138%,-0.7333%
O=C1CCCN1Cc1ncn2c1CN(Cc1cccs1)CCC2,-1.523%,-3.868%
COc1cc(C2SCC(=O)Nc3[nH]ncc32)c(OC)c2c1OCO2 (stereo not drawn),4.153%,-2.583%
Cc1nc(NCc2ccc(F)cc2)cc(C2CCCN2)n1 (stereo not drawn),-4.686%,2.243%
OC(COCc1cccs1)CSc1nnc2ccccn12 (stereo not drawn),-1.845%,-0.3549%
Cc1cccc(CN2C[C@@H](C)[C@@]3(CCN(CC(=O)N(C)C)C3=O)C2)c1,4.247%,-4.215%
Cc1nnc2n1CCN(CC(O)CN1CCC(C)CC1)C2 (stereo not drawn),0.3165%,0.07788%
NCC1(c2cccc(F)c2)CCOCC1,7.863%,11.5%
CC(C)n1ccc(C(=O)NCC(O)c2c(Cl)cccc2Cl)n1 (stereo not drawn),-8.835%,-2.057%
Cc1cccc(N2CC[C@H]3CO[C@H](CN(C)Cc4ccco4)[C@H]3C2)n1,2.788%,-
Cc1nc(C)n(CC2CCCN2CCOc2cccc(F)c2)n1 (stereo not drawn),6.824%,-9.857%
Cc1cc(-c2cc(S(=O)(=O)N3C[C@H](C4CC4)[C@@H](N)C3)c(C)s2)on1,6.579%,0.122%
CN(CC1CC1)C(=O)Cc1csc(-c2ncccn2)n1,9.565%,-1.83%
Cc1noc(CCCc2nc(C3CCOC3)no2)n1 (stereo not drawn),0.1255%,0.306%
O=C(c1ccco1)N1CCO[C@@H]2CNC[C@@H]21,1.485%,-
COc1ccc(CN(C)Cc2cccc(C#N)c2)c(OC)c1,-3.831%,1.211%
COCc1nc(NC(C)Cc2cc(C)n[nH]2)c2cnn(C)c2n1 (stereo not drawn),4.104%,-1.679%
Cc1cc(-c2nc(-c3ccccn3)nn2C2CCN(C)CC2)nc(C)n1,3.636%,-2.528%
c1cnc2c(CN3CCCCC3c3ccncn3)cnn2c1 (stereo not drawn),0%,-5.426%
Cc1ncnc2c1CCN(C(=O)c1cnccn1)CC2,-2.258%,-0.6506%
Cc1nc(Nc2cnccn2)cc(C2CCCN(C(C)C)C2)n1 (stereo not drawn),1.859%,-
CN(C)C(=O)CO[C@@H]1CC[C@H]2[C@H]1OCCN2C(=O)C1CCOCC1,5.176%,-0.1876%
C[C@@H]1CN(C(=O)c2cc(COc3ccc4c(c3)OCO4)[nH]n2)C[C@H](C)O1,1.818%,-0.404%
O=C1CC(c2ccncc2)C2(CCN(Cc3cccnc3)CC2)N1 (stereo not drawn),3.361%,2.616%
Cc1ccccc1-c1noc(CN2CCOC(Cn3cccn3)C2)n1 (stereo not drawn),8.238%,-3.453%
CCn1c(CC2CCN(S(=O)(=O)c3cccc(C)c3)CC2)nn(C)c1=O,6.71%,-2.738%
CCc1cnc(CN(C)C2CCN(CC3CCC3)C2)o1 (stereo not drawn),1.263%,-3.154%
CC(C)OCc1cccc(CNc2cnn(C)c(=O)c2Cl)c1,1.567%,-8.045%
CC(C)c1nccc([C@H]2C[C@@H]3CCN(Cc4ccoc4)C[C@H]3O2)n1,2.445%,1.246%
COc1cc(C)nc(N2CCN(C(=O)COCC3CC3)CC2)n1,5.627%,-2.288%
CCc1sc(-c2nnc(CNC(C)Cn3cc(C)cn3)o2)cc1C (stereo not drawn),-1.297%,8.622%
CCN(CC)CCn1ccnc1-c1[nH]cnc1C,5.897%,-0.7098%
CC[C@H]1CN2CC[C@H]1C[C@@H]2CNCc1ccc(OC)cc1,-10.16%,-3.991%
CC(=O)N1CCc2nnc(C3CCCCN3CC3CC3)n2CC1 (stereo not drawn),1.607%,2.353%
CC(NC(=O)NCCn1ccnc1)c1ccc2c(c1)NC(=O)CO2 (stereo not drawn),3.599%,-2.439%
NC(=O)CC1CCCCN1C(=O)c1cccc(C(F)(F)F)c1 (stereo not drawn),5.747%,-12.25%
Cc1cccc(N2CCN(C(=O)CCCC(=O)N(C)C)C(C)C2)n1 (stereo not drawn),4.051%,-0.2045%

6 of the entries, repeated:

| structure | CoaBC | MtTrpRS |
|---|---|---|
| `Cc1cccc(NC(=O)N2CC(C(=O)NC(C)C)C3(CCOCC3)C2)c1` (stereo not drawn) | 9.128% | -3.438% |
| `COc1ccc(C(O)C(=O)N2CCC(c3nccn3C(C)C)CC2)cc1` (stereo not drawn) | 0.7673% | -1.26% |
| `Cc1noc(CCCc2nc(C3CCOC3)no2)n1` (stereo not drawn) | 0.1255% | 0.306% |
| `NCC1(c2cccc(F)c2)CCOCC1` | 7.863% | 11.5% |
| `Cc1cc(C(=O)Nc2cccn(Cc3ccc(F)cc3)c2=O)on1` | -8.645% | 5.716% |
| `O=C1CC(c2ccncc2)C2(CCN(Cc3cccnc3)CC2)N1` (stereo not drawn) | 3.361% | 2.616% |

Data taken from ChEMBL document CHEMBL3988442, “University of Dundee, Small-Polar-MMV Screening Library” (2021).